Test results published in the supplement of paper PMC11006884.
Most of the targets with a hit are listed elsewhere, so they are rarer here than in the full data. This is a noisy data set. The list shows a part of the results, in another mix than the full data.

These targets were tested with COC(=O)/C=C/c1ccccc1 [methyl cinnamate] (assay: log2 ratio of iodoacetamide-alkyne labeling of the cysteine site, DMSO over compound (competition); higher = stronger covalent engagement of the cysteine by the compound, active = 1 or more). Details: 500 µM; treatment time 1 h; system: HEK293T cell lysate.
How it was run: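 Three replicates, each with duplicate channels, were prepared from HEK293T lysate (2 mg/mL) treated with vehicle or electrophile at 500 µM for 1 h at ambient temperature. Iodoacetamide alkyne was then applied for 1 h, and samples were clicked to sCIP-TMT reagents, pooled, trypsin-digested overnight at 37 °C, enriched on streptavidin, acid-eluted and analysed on Orbitrap Eclipse LC-MS/MS with FAIMS, with FragPipe quantification. The log2 competition ratio per cysteine is the mean control-channel divided by the mean compound-channel reporter intensity. Cysteines quantified in only one replicate were left out.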

log2 ratio of iodoacetamide-alkyne labeling, inactive:
DEK C200 (UniProt P35659) 0.478
PPP2R1A C377 (UniProt P30153) 0.419
TMPO C280 (UniProt P42166) 0.153
PPP2R1B C306 (UniProt P30154) 0.0917
CDC25C C42 (UniProt P30307) 0.326
HADHA C322 (UniProt P40939) 0.0875
BSG C242 (UniProt P35613) 0.159
TTK C465 (UniProt P33981) 0.0813
MDH2 C89 (UniProt P40926) 0.232
TMPO C629 (UniProt P42166) -0.0542
SHMT2 C119 (UniProt P34897) -0.0143
MDH2 C93 (UniProt P40926) 0.189
STIP1 C339 (UniProt P31948) 0.253
STIP1 C370 (UniProt P31948) 0.194
SLC7A1 C628 (UniProt P30825) 0.227
STIP1 C471 (UniProt P31948) 0.122
LRPPRC C927 (UniProt P42704) -0.0642
UniProt P41250_C616 0.152
HSPA4 C245 (UniProt P34932) 0.0112
MCM5 C221 (UniProt P33992) 0.212
SHMT2 C91 (UniProt P34897) 0.214
STIP1 C417 (UniProt P31948) 0.0788
ETFB C71 (UniProt P38117) 0.0937
RPL3 C336 (UniProt P39023) 0.177
PDIA3 C406 (UniProt P30101) 0.154
HSPA4 C376 (UniProt P34932) -0.102
GLRX C8 (UniProt P35754) 0.329
ETFB C42 (UniProt P38117) 0.077
PEBP1 C168 (UniProt P30086) 0.0977
UniProt P42126_C114 -0.0724
CTNNA1 C324 (UniProt P35221) 0.0518
MYH9 C917 (UniProt P35579) 0.162
RFC1 C607 (UniProt P35251) 0.233
EIF1 C69 (UniProt P41567) 0.231
FUS C428 (UniProt P35637) -0.0773
MYH9 C896 (UniProt P35579) -0.0889
CA8 C200 (UniProt P35219) -0.101

Reprinted at random: two entries already listed, in no set order.
log2 ratio of iodoacetamide-alkyne labeling, inactive:
UniProt P41250_C616 0.152
PEBP1 C168 (UniProt P30086) 0.0977
